No constants are given. Whether binding was seen depends on the method and setting. In cells and extracts the contact can be indirect. Some results given as binding are weak or reduced against the parent protein; the word gives no strength.
Assays:
[1] = target: T1, Lmo4 (mouse (endogenous in P1 cortex)) (UniProt P61969); assay: co-IP; nuclear extracts (NE-PER kit) of P1 control and Nr2f1 CKO mouse cortices, dialysed against buffer D (20% glycerol, 20 mM HEPES pH 7.9, 100 mM KCl, 0.2 mM EDTA, 0.5 mM DTT); precipitated with anti-Lmo4 or anti-Satb2 (anti-BrdU as control) on Protein A Sepharose; Western blot for Hdac1, Ski or Satb2
T1 sequence: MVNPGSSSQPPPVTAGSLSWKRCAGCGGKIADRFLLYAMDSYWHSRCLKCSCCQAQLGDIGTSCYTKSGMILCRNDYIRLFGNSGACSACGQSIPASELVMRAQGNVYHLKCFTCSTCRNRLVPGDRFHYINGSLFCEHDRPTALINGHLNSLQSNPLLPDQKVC

The chains behind the UniProt entries cited, without tags or fusion partners.
UniProt O09106: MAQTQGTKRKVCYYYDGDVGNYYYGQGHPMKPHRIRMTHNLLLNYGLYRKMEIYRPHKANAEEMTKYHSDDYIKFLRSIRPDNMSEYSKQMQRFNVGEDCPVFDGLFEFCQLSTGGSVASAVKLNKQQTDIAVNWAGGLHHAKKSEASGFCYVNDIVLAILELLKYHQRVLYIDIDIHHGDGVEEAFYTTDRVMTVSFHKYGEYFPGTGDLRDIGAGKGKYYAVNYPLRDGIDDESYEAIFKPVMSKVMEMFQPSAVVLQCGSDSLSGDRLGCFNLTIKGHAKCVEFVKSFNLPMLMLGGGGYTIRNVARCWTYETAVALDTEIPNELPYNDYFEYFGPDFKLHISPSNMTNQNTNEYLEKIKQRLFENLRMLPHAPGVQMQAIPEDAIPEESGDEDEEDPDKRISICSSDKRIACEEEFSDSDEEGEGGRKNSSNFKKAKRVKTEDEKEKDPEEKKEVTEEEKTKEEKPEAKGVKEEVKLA

[2] = target: T2, Satb2 (mouse (endogenous in P1 cortex)) (UniProt Q8VI24); assay: as above
T2 sequence: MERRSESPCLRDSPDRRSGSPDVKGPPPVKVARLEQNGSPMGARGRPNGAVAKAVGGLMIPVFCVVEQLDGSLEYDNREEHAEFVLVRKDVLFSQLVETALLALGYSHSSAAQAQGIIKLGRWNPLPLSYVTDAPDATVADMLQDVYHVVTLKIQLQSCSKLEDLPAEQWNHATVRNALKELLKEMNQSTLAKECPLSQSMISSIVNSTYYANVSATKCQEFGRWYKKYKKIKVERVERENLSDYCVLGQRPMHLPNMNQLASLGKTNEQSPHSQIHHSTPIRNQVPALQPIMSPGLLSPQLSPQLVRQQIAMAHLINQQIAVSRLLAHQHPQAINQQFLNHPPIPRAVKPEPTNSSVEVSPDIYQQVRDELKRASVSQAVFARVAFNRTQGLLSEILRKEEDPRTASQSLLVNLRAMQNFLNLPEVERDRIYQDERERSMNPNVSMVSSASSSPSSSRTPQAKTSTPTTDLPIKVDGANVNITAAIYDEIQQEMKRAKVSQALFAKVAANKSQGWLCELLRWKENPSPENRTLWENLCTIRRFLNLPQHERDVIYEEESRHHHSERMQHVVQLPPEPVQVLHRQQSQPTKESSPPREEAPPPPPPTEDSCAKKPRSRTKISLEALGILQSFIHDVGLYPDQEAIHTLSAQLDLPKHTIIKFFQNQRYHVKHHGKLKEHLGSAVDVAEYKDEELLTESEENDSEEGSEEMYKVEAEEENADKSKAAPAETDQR

binding [1]: binds
binding [2]: binds
Substance: histone deacetylase 1 (Hdac1) (from UniProt O09106 1-482) (enzyme)

From article PMC4744182
